Test results: patent US20250074994A1 (Molecular Partners, published 2025)
These are yes or no findings as the source states them, for the method shown. Some entries that bind do so weakly or less than the wild type. Where a sequence is shown, tags or fusion partners need not be part of it.

What was measured:
[1] = molecular target: T1, biotinylated recombinant human CD70 (extracellular domain, Fc tag) (human) (UniProt P32970); test: crude cell extract HTRF with 2 nM biotinylated hCD70
T1 sequence (chain, chemically biotinylated using 5-fold excess of Biotin): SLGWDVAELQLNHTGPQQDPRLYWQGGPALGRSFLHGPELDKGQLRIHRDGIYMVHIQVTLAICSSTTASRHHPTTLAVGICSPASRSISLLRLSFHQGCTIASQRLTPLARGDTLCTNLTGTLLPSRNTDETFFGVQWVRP

[2] = molecular target: T1, biotinylated recombinant human CD70 (extracellular domain, Fc tag) (human); test: crude extract HTRF

binding [1]: binds
binding [2]: binds
B1: DARPin® protein #7 (designed binder)
chain: MRGSHHHHHHGSDLGAKLLNAATVGQDDEVRILLAAGADVNAKDWSGQTPLHHAAYTGHLEIVEVLLKAGADVNAKDSWGWTPLHLAAYTGHLEIVEVLLKAGADVNAQDKEGSTPADLAAFHGHEDIAEVLQKAA
